Measurements as given in article PMC10542812.
Results are given in words; binding and its absence hold for the method and conditions named. Some binding calls cover weakened binding; strength is not graded here.

By UniProt entry, the sequences of proteins in these tests, tags left out. Where a name states a change or a piece, a line headed by the entry shows the natural chain unless it says otherwise. Residues count along the entry.
CK1δ kinase domain (P48730, residues 1-294): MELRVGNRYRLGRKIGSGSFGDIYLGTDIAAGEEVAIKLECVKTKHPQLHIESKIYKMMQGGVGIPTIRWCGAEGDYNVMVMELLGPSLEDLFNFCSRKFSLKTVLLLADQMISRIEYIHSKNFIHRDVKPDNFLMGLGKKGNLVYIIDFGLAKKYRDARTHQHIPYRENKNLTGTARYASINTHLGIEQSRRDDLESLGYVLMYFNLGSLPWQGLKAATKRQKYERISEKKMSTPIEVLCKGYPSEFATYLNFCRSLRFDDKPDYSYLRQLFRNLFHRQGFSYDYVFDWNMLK
C-terminal domain of CK1δ (R324 to R415), non-phosphorylated (P48730, residues 324-415): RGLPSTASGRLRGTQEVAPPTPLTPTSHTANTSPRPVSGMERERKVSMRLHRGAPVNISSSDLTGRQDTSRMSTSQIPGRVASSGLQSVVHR

Biological target: C-terminal domain of CK1δ (R324 to R415), non-phosphorylated (human) (UniProt P48730)
Experiment: NMR titration; unlabelled kinase domain titrated to the 15N-labelled C-terminal domain; [15N,1H]-BEST-TROSY-HSQC; 50 mM Bis-Tris pH 6.5, 50 mM NaCl, 10 mM MgCl2, 0.5 mM TCEP; 298 K; raising the salt from 50 to 150 mM had almost no effect; both purified

## CK1δ kinase domain (from UniProt P48730 1-294) (domain or fragment)
  binding: binds weakly
